In assay [1] the target is Annexin A2 (endogenous, HepG2) (human (endogenous in HepG2)) (UniProt P07355). Kind of assay: co-IP; HepG2 whole-cell lysate (untransfected, or transfected with Annexin A2-WT-myc or Annexin A2-K302A-myc); 2 mg lysate with anti-Annexin A2, anti-p50 or anti-C-myc, protein A/G beads, 4°C, immunoblot; cells treated for 12 h with G-Rg5 (6 μmol/L), G-Rk1 (6 μmol/L), PMA (100 ng/mL) or etoposide (25 μg/mL). (In general: Immunoblotting shows a protein as a band on a membrane.)

Amino acid sequences for entries named in this document (tags omitted). A change or cut given only in a name is not applied to a line headed by its entry. Residues count along the entry.
UniProt P07355: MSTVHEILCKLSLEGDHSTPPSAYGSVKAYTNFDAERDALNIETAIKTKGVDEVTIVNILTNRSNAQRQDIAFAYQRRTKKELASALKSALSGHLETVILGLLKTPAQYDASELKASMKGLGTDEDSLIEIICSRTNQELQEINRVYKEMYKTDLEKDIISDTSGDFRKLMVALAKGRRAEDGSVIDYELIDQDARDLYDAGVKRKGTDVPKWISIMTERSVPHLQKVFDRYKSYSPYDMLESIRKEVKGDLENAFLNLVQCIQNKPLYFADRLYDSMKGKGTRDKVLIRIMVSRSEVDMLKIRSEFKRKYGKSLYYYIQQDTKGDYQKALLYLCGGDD
UniProt P19838, residues 1-433: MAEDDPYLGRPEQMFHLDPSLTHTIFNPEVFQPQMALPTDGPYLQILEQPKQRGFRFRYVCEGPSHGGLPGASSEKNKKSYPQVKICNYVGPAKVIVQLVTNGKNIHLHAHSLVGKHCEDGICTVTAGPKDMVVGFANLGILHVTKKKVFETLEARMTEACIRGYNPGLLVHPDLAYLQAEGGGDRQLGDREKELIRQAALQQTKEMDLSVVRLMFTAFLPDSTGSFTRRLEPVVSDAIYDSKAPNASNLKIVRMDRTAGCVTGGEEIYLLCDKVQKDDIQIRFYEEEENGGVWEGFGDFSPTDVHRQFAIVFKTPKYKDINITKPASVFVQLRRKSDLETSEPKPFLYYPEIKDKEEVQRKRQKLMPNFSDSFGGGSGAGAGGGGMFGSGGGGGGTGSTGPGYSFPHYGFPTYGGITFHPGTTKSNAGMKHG

The target in assay [2] is Annexin A2-K302A-myc (human) (UniProt P07355). The assay is described as above.
Assay [3] deals with Annexin A2-WT-myc (human) (UniProt P07355). The assay is described as above.
Assay [4] deals with non-tagged Annexin A2 (pEXS-Annexin A2-WT), prokaryotic cell-expressed (human) (UniProt P07355). Kind of assay: co-IP; in vitro: 1 mg E. coli BL21 (DE3) lysate containing Annexin A2 mixed with 1 mg lysate containing p50, 4°C overnight, with or without G-Rg5 or G-Rk1; immunoprecipitation and immunoblot as for the in vivo assay.
In assay [5] the target is non-tagged Annexin A2-K302A (pEXS-Annexin A2-K302A), prokaryotic cell-expressed (human) (UniProt P07355). The description is as above.

These are yes or no findings as the source states them, for the method shown. Binding seen in cells or lysates may run through a third protein. Some results given as binding are weak or reduced against the parent protein; the word gives no strength.

“NF-κB p50 subunit (endogenous, HepG2) (from UniProt P19838 1-433)”: the binding result in assay [1], in assay [2] and in assay [3] was “binds” throughout.

Regarding “non-tagged NF-κB p50 subunit (pEXS-p50), prokaryotic cell-expressed (from UniProt P19838 1-433)”, the binding result in assay [4] and in assay [5] was “binds” in each case.

The values are drawn from publication PMC5966357.
